# Reference: patent publication US7355074B2, “Compounds having aromatic rings and side-chain amide-functionality and a method for transporting monovalent anions across biological membranes using the same” (The University of Maryland, priority 2003, dated 2008)
# For at least one compound, name, drawing or mass did not settle the structure. Some entries share one result that the patent states for a list of compounds.
# Legend:
# [1] = pH changes in liposomes experiencing a Cl- gradient (oligophenoxyacetamides); type: biochemical; conditions: 4 mol %; NaCl-loaded liposomes in Na2SO4 buffer
# Protocol: FIG. 2B illustrates alkanization of the vesicular aqueous compartment upon application of compounds 1-6 to a suspension of NaCl-containing vesicles in isosmomolar Na2SO4 buffer. Concentration of compounds 1-6 in the vesicular suspension was 20 μm (4 mol %). Legend for traces denotes use of oligocompounds 1, 2, 3, 4, 5, 6.
# Liposome Preparation for Fluorimetric Assays. Egg yolk L-α-phosphatidylcholine (EYPC ethanol solution, […], 79 μmol) was dissolved in a CHCl3/MeOH mixture, the solution was evaporated under reduced pressure and the resulting thin film was dried under high vacuum for 2 h. The lipid film was hydrated in 1.2 mL of phosphate buffer (10 mM sodium phosphate, pH=6.4, 75-100 mM MnX, M=N^+, K^+, X=Cl^−, SO4^2−, n=1,2) containing 10 μM HPTS (pyranine, 8-hydroxypyrene-1,3,6-trisulfonic acid trisodium salt) for 40 min. […]
# Analysis of pH changes in the liposomes experiencing a CT gradient. a) Outwardly directed gradient of Cl:HPTS-loaded vesicles (100 μL of the stock solution), filled with a saline phosphate buffer (10 mM sodium phosphate, pH 6.4, 100 mM NaCl) were suspended in 1.9 mL of an isosmotic phosphate sulfate buffer (10 mM sodium phosphate, pH 6.0, 75 mM Na2SO4) and placed into a fluorimetric cell. The emission of HPTS at 510 nm was monitored with excitation wavelengths at 403 and 460 nm simultaneously. […] Safranin O emission was monitored at 580 nm with excitation at 520 nm. […]
# [2] = voltage-clamp experiments on black lipid membranes; type: biochemical; conditions: 480 events; 1 M KCl
# Protocol: FIG. 10(A) represents current events across a BLM in voltage clamp experiments after application of calixarene tetrabutylamide 2 ([…]). The voltage applied was −20 mV for all three recordings. (B) The distribution of conductance ranges observed in voltage clamp experiments with 2 acting as an ion channel.
# The voltage-clamp assay was conducted using a setup with two chambers, each filled with an electrolyte solution and separated by a BLM. After voltage was applied across the membrane, a solution of 2 was added to one of the chambers. Subsequent current across the membrane was attributed to ion transport mediated by 2, since control experiments wit DMSO solvent were negative. The abrupt changes in current intensity (events) are consistent with an ion channel mechanism. The relatively long-lasting open states indicate that channels formed by calixarene tetrabutylamide 2 are stable.
# Voltage-Clamp Experiments. […] Once calixarene tetrabutylamide 2 was incorporated into the lipid, the current through the membrane was recorded using both a chart recorder and directly digitized and stored as a computer file. The conductance values were calculated by dividing the current by the applied voltage. The events were grouped into conductance ranges of equal magnitude for the purpose of showing the distribution of recorded conductances.
# [3] = sodium picrate extraction in CDCl3 monitored by 1H NMR; type: binding; conditions: CDCl3, solid sodium picrate up to 10 equiv
# Protocol: FIG. 9 ^1H NMR spectrum (400 MHz, CDCl3, 22° C.) of (A) calixarene octabutylamide (5 mM) in CDCl3, (B) the same compound after addition of 1 equiv. of NaPic. (C) the same compound after addition of 2 equiv. of NaPic.
# The secondary amide NH and the core aromatic ring framework, in this case the calix[4]arene framework, are essential for the HCl transport activity of 2. Calix[4]arene octabutylamide 3 was used as a negative control for tetrabutylamide 2, as the lack of amide NH protons in 3 would preclude Cl^− binding. Instead, 3 should be a cation ionophore, much like tetrakis(diethylcarbamoylmethoxy)-p-tert-butylcalix[4]arene-1,3-alt that coordinates cations in the solid-state and solution. To confirm that 3 binds Na^+, sodium picrate extraction in CDCl3 was monitored by ^1H NMR spectroscopy. Complexation of the salt by 3 was evident. Two distinct complexes were formed, corresponding to a 1:1 and a 2:1 Na^+:3 stoichiometry. The 1:1 complex was generated by adding 1 equiv of solid sodium picrate to a solution of 3. Binding this Na^+ led to a symmetry loss for 3, indicated by doubling of the ^1H NMR peaks. […] In contrast, sodium picrate extraction by calix[4]arene tetrabutylamide 2 was not detected by ^1H NMR spectroscopy.
SMILES,time to reach the pH gradient [1] [minutes],further results
"CCCCNC(=O)COc1ccccc1Cc1ccccc1OCC(=O)NCCCC [Dimer 2, bis-(N-butyl-2-phenoxyacetamide)]",> 7,–
"CCCCNC(=O)COc1c2cccc1Cc1cccc(c1OCC(=O)NCCCC)Cc1cccc(c1OCC(=O)NCCCC)Cc1cccc(c1OCC(=O)NCCCC)C2 [calix[4]arene tetrabutylamide 2, Calix[4]arene tetrabutylamide]",–,distribution of conductance levels [2]: 50 pS-2 nS
"CCCCNC(=O)COc1ccccc1Cc1cccc(Cc2cccc(Cc3cccc(Cc4cccc(Cc5ccccc5OCC(=O)NCCCC)c4OCC(=O)NCCCC)c3OCC(=O)NCCCC)c2OCC(=O)NCCCC)c1OCC(=O)NCCCC [hexamer 6, Hexakis-(N-butyl-2-phenoxyacetamide)]",> 7,–
"CCCCN(CCCC)C(=O)COc1c2cccc1Cc1cccc(c1OCC(=O)N(CCCC)CCCC)Cc1cccc(c1OCC(=O)N(CCCC)CCCC)Cc1cccc(c1OCC(=O)N(CCCC)CCCC)C2 [calix[4]arene octabutylamide 3, Calix[4]arene Octabutylamide]",–,Na+:ligand stoichiometry of complexes formed [3]: 1:1 and a 2:1
